From ChEMBL document CHEMBL3988442, “University of Dundee, Small-Polar-MMV Screening Library” (2021).

Each number is a percent effect as filed. How 0% and 100% were set is not recorded. Most values in the screen are low, and negative values occur. This is an unselected part of the compounds tested. Two or more numbers in one place are separate tests of the same structure; such repeats can differ widely.

Mtb cholesterol medium: 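Whole-cell growth test on Mycobacterium tuberculosis, read after 4 days in a medium based on cholesterol and the lipid DPPC; the read-out is not stated. Compounds at 50 µM. Higher reads as more growth inhibition (inferred: compounds with an IC50 in retests scored well above the rest). Of about 69,000 compounds tested this way, about 370 (0.54%) reached 50% or more in at least one test.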
Mtb glucose medium: 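Whole-cell growth test on Mycobacterium tuberculosis, read after 3 days in glucose-containing 7H9 medium; the read-out is not stated. Tested at 50 µM. Direction is inferred from retests: higher values go with more growth inhibition. About 69,000 compounds were tested under these conditions; 1.1% (about 760) showed 50% or more at least once.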

compound,Mtb cholesterol medium,Mtb glucose medium
COc1ccc(-c2noc(CN3CC(n4cc(C)cn4)C3)n2)cc1,38.92%,46.07%
Cc1nn(C)c(C)c1NC(=O)Nc1cccnc1N1CCCC1,1.371%,5.943%
CN(C)C(=O)CN1CCc2ncnc(N(C)C)c2CC1.O=C(O)C(F)(F)F,3.956%,3.582%
Cc1cc(C)n(CC2CCN(CC(O)Cn3cccn3)CC2)n1 (centres undefined),0.06862%,20.52%
COc1cccc([C@H]2CN(CCCS(=O)(=O)N(C)C)C[C@@H]2N)c1,-7.494%,4.22% & 2.355%
Cc1ccc(NC2CCN(C(=O)COc3cccnc3)CC2)nn1,-29.34%,-48.46%
[H][C@]12CCCCN1CCC[C@H]2CCC(=O)NCCc1cc(O)ncn1,2.138%,2.65%
COC(C)(CNS(=O)(=O)c1cnn(C)c1)c1ccccc1F (centres undefined),-7.438%,-3.566%
[H][C@@]12COC[C@]1([H])[C@@H](OCC1CCOCC1)CN2C(=O)c1cccn1C,-3.811%,-22.67%
Cc1ccccc1OC1CCN(CC(=O)Nc2cn(C)nc2C)CC1,-6.199% & -1.196%,-12.01%
CC(C)c1nn(C)c(N(C)C)c1CNCc1ccnn1C,-7.563%,33.4%
O=C(C1CC1)N1CC[C@H](c2nnc(-c3ccccc3F)o2)C1,13.37%,-3.866% & 18.27%
CCC1CN(CC(=O)NCCC#N)CCO1 (centres undefined),-21.73%,14.92%
Cc1ccccc1-c1cncc(C2CCN(C)CC2)n1,-2.766%,4.818%
O=C(O)C(F)(F)F.O=C(c1ccccc1)N1CCCn2c(CN3CCCCC3)nnc2C1,-11.32% & -19.33%,3.03%
COc1cc(N2CCc3ncnc(-c4ccncc4)c3CC2)ncn1.O=C(O)C(F)(F)F,2.149%,-14.65% & 19.65%
CN(C(=O)OC(C)(C)C)C1CCN(C(=O)c2cc(Cl)c[nH]2)C1 (centres undefined),-12.71%,-24.56%
CCc1noc(CN(Cc2cccs2)C2CC2)n1,-9.552%,21.87%
Cc1c(C(=O)NCC2CCN(Cc3ccco3)C2)[nH]c2ccccc12 (centres undefined),9.92%,17.45%
O=C(NCCNc1ncccn1)C1CCN(C(=O)NC2CC2)CC1,11.02%,0.04165% & -4.622%
CCN1CC(C(=O)N2CCc3cc(C(=O)N(C)C)n(C)c3C2)CCC1=O (centres undefined),-12.64%,-12.64%
O=C(NCC(F)(F)F)C1CCCN(Cc2ccno2)C1 (centres undefined),-2.645%,-18.13%
CCCNC(=O)NC(=O)CNC(C)(C)c1ccc2c(c1)OCO2,24.18%,0.9899% & 23.89%
Cc1nn(C)c2c(NCc3ccccn3)nc(C(C)C)nc12,-4.025%,10.16%
CN(C)CC1(O)CCCN(c2ccnc3c(C(F)(F)F)cccc23)C1 (centres undefined),-1.701%,2.398%
CCc1nc2n(n1)CC(NCc1cc(OC)c3c(c1)OCCO3)CC2 (centres undefined),-19.11%,-22.31%
CCc1nnc(CN2CCN(C(=O)c3cc4ccccc4[nH]3)CC2)o1,-12.69%,21.07%
Cc1noc(CN(C)C(=O)c2n[nH]c(N)c2-c2ccccc2)n1,-12.74%,-7.291%
[H][C@@]12CCN(S(=O)(=O)CCC)C[C@]1(c1nnc(C)o1)CCO2,-1.951%,-14.5%
CC(=O)Nc1nc(C(=O)NCCOc2ccccc2)cs1,14.02% & 0.9607%,18.36%
Cc1nc(N2CCCC2)nc2c1CCN(C(=O)CC1CCCC1)CC2,-8.423%,3.252%
Cc1cc(F)c2c(c1)CCCN2S(=O)(=O)c1ncn(C)c1Cl,-0.5906% & -11.51%,24.36%
Cc1ccc(NC(C)C(=O)NCc2cccs2)cc1C (centres undefined),14.59%,32.74% & 11.02%
Cc1occc1CNC(=O)C1CCN(C(=O)OC(C)(C)C)C1 (centres undefined),-3.785%,-7.816%
c1ccc2[nH]c(C3CCN(Cc4nc(C5CC5)no4)CC3)cc2c1,-12.99%,0.6111%
COc1ccc2[nH]c(=O)c(CN(C)CCN3CCCC3)cc2c1,-18.72%,-38.52% & 3.471%
Cc1ccc(S(=O)(=O)NC(=O)COc2cccc(C(N)=O)c2)s1,-22.23%,-30.57%
O=C(NCCC1CN(Cc2cccnc2)CCO1)c1ccsc1 (centres undefined),-1.187%,-10.06%
CCNC(=O)NC1CN(CC(=O)NCc2ccccc2C)C[C@@H]1OC (some centres undefined),15.01%,13.18%
O=C(O)C(F)(F)F.[H][C@]12CC[C@@]3(N=C(c4ccccc4)NC3=O)[C@@]1([H])CN(CC1CC1)C2,6.869%,14.67% & -3.441%
CCN(Cc1c(C)nn(CC)c1C)S(=O)(=O)c1cnn(C)c1C,1.48%,41.04%
Cc1n[nH]c(C2CN(C(=O)c3ccon3)CCO2)n1 (centres undefined),1.059%,16.85%
CC(C)CS(=O)(=O)CC(=O)N1CCCC1c1noc(C2CC2)n1 (centres undefined),16.65%,6.537%
O=C(O)C(F)(F)F.O=C(O)C(F)(F)F.[H][C@]12C[C@H](CN(C)C)O[C@@]1([H])CN(Cc1ccc(OC)cc1)C2,0.506%,-1.133%
CSCc1nc(CNC(=O)c2cnn(C(C)C)c2)cs1,5.956%,-6.17%

Once more, the final 4:

Cc1n[nH]c(C2CN(C(=O)c3ccon3)CCO2)n1 (centres undefined) read Mtb cholesterol medium: 1.059%; Mtb glucose medium: 16.85%.
CC(C)CS(=O)(=O)CC(=O)N1CCCC1c1noc(C2CC2)n1 (centres undefined) read Mtb cholesterol medium: 16.65%; Mtb glucose medium: 6.537%.
O=C(O)C(F)(F)F.O=C(O)C(F)(F)F.[H][C@]12C[C@H](CN(C)C)O[C@@]1([H])CN(Cc1ccc(OC)cc1)C2 read Mtb cholesterol medium: 0.506%; Mtb glucose medium: -1.133%.
CSCc1nc(CNC(=O)c2cnn(C(C)C)c2)cs1 read Mtb cholesterol medium: 5.956%; Mtb glucose medium: -6.17%.